No constants are given. Whether binding was seen depends on the method and setting. Binding seen in cells or lysates may run through a third protein. Some results given as binding are weak or reduced against the parent protein; the word gives no strength.

Amino acid sequences for entries named in this document (tags omitted). Residues count along the entry.
UniProt Q64726, residues 18-307: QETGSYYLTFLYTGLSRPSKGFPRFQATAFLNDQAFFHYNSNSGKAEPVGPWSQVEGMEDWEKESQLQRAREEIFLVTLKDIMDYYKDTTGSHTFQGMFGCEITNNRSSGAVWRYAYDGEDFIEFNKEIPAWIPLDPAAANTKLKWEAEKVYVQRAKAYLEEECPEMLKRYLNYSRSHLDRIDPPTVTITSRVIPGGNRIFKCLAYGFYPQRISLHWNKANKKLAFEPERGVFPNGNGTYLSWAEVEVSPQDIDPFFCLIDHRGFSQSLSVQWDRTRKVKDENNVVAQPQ

The target of the test is T1, acylglycerol kinase (AGK) (mouse (endogenous in N2A, GT1-7)) (UniProt Q9ESW4).
T1 sequence: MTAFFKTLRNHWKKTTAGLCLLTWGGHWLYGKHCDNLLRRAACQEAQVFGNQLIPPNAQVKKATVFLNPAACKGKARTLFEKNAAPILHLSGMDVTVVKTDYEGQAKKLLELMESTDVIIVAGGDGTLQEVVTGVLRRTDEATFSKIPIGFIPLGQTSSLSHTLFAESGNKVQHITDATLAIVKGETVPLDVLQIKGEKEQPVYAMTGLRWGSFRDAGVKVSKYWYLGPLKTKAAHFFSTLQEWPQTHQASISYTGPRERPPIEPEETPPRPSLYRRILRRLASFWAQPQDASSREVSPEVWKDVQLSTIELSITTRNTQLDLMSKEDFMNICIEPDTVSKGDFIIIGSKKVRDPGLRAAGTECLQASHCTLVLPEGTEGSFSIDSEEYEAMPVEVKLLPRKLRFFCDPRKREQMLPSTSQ
Kind of test: co-IP; lysates (500 ug protein) of N2A and GT1-7 cells transfected with LV-Azgp1 or LV-Agk for 48 h; 5 ug of antibody against AZGP1, AGK or IgG (negative control) at 4 °C overnight; protein A/G magnetic beads; immunoblotting. In general terms: In western blotting, separated proteins are transferred to a membrane and probed.

Regarding “Zinc-alpha2-glycoprotein (AZGP1) (from UniProt Q64726 18-307)”, the binding entry is on record as “binds”.

Values taken from PMC11032411.
